Data: US20180037657A1 (AGENSYS, published 2018)
These are yes or no findings as the source states them, for the method shown. Some binding calls cover weakened binding; strength is not graded here.

Protein sequences, listed by entry. Tags and fused reporters are not part of them. Lines headed by an entry give the natural chain unless they say otherwise; changes in a name come on top.
UniProt P36888: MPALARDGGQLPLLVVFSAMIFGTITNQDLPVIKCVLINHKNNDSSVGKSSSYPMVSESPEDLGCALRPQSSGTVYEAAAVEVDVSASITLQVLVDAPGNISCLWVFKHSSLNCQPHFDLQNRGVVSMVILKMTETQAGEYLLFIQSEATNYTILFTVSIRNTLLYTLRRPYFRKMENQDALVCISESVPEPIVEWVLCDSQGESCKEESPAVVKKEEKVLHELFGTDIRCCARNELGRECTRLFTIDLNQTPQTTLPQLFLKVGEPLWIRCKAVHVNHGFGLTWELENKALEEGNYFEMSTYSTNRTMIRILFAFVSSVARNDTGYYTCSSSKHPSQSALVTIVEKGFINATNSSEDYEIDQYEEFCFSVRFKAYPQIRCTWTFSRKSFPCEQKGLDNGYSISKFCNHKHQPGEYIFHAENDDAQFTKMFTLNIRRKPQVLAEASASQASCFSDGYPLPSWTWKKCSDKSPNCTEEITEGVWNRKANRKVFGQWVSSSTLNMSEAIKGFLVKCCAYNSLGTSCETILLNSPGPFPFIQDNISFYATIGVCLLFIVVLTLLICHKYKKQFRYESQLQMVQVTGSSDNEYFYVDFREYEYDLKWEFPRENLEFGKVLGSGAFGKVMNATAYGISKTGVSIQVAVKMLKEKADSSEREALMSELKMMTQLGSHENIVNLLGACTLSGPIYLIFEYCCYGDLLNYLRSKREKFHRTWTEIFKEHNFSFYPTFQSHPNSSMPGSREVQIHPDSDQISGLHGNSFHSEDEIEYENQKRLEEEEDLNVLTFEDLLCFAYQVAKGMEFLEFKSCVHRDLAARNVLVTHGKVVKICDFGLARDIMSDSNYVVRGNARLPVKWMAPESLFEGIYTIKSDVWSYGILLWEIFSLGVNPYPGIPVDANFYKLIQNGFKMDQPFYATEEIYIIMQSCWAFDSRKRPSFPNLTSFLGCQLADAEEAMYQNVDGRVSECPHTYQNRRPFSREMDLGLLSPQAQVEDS

Molecular target: FLT3 on the cell surface (human leukemia cell lines and patient cells) (human) (UniProt P36888)
Assay: flow cytometry on MOLM-13 cells, biotinylated antibody at 10 ug/ml and Streptavidin-PE, after 30 min pre-incubation with human FLT3 ligand

binding: binds
B1: v62-1b37.1 (antibody, human IgG1, kappa, V domains shown)
VH: EVQLVESGGGVVRPGGSLRLSCAASGFTFDDYGMSWVRQAPGKGLEWVSGINWNGGSTGYADSVKGRFTISRDDAKNSLYLQMNSLRAEDTALYHCARDGYTYGPFDNWGQGTLVTVSS
VL: DIQMTQSPSSLSASVGDRVTITCRASQGIRNDLGWYQQKPGKAPKRLIYAASSLQSGVPSRFSGSGSGTEFTLTISSLQPEDFATYYCLQHNSYPYTFGQGTKLEIKR
